PubChem BioAssay AID686937 | Drosophila RNAi Screening Center | 2013
In all, the deposit lists about 23,000 reagents; shown is an unselected part of those with a known target gene and a result. 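Reduced-secretion tags in replicate 1 do not always agree with the z-scores; no criterion for assigning the tags was given.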 Names joined by + are all predicted targets of the reagent. No sequences are given here. Not given: the amount of reagent.

- Aim: 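Genes in the fly needed for secretion of protein constitutively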 (primary screen)
- System: Drosophila S2 cells expressing secreted horseradish peroxidase
- Knock-down reagent: long dsRNA against Drosophila genes
- Timing: about 5.5 days (5 days dsRNA, then 12 h reporter induction)
- Challenge: reporter expression induced after 5 days of dsRNA, read 12 h later; inducer not stated
- Read-out: 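After 5 days of dsRNA and 12 h of reporter induction, medium peroxidase read by chemiluminescence and scored as per-plate z-score; higher values mean more reporter released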
- Reading the numbers: z-score: higher = more reporter secreted into medium

The first 2 entries, ahead of the listing:
| Gene | amplicon | z-score, replicate 1 | z-score, replicate 2 |
| --- | --- | --- | --- |
| ACXD (GeneID 38284) | DRSC07843 | 0.27 | 0.28 |
| CG2991 (GeneID 33488) | DRSC00559 | 0.14 | 0.27 |

Results, from the first entry:
| Gene | amplicon | z-score, replicate 1 | z-score, replicate 2 |
| --- | --- | --- | --- |
| ACXD (GeneID 38284) | DRSC07843 | 0.27 | 0.28 |
| CG2991 (GeneID 33488) | DRSC00559 | 0.14 | 0.27 |
| Poc1 (GeneID 39502) | DRSC09713 | 0.16 | 0.21 |
| Zpr1 (GeneID 31851) | DRSC18432 | 0.28 | 0.22 |
| CG16762 (GeneID 38310) | DRSC08493 | 0.15 | 0.22 |
| cyc (GeneID 40162) | DRSC11337 | 0.21 | 0.07 |
| CG17230 (GeneID 41376) | DRSC15203 | 0.45 | 0.59 |
| CG5910 (GeneID 40264) | DRSC11786 | 0.4 | 0.44 |
| Porin2 (GeneID 34499) | DRSC02584 | 0.48 | -0.75 |
| Cpr23B (GeneID 33480) | DRSC00555 | -0.71 | -1.24 |
| CG1889 + CG43386 | DRSC17979 | 0.36 | 0.5 |
| CG15765 (GeneID 31513) | DRSC18071 | -1.13 | -0.59 |
| CG6607 (GeneID 42925) | DRSC16073 | 0.3 | 0.34 |
| lectin-24A (GeneID 53543) | DRSC00604 | 0.18 | 0.12 |
